Our source for the binding values is patent publication US20250346890A1, “LEUKEMIA TREATMENT” (Deutsches Krebsforschungszentrum, priority 2019, published 2025).

By UniProt entry, the sequences of proteins in these tests, tags left out. Where a name states a change or a piece, a line headed by the entry shows the natural chain unless it says otherwise. Chains listed by the source or under a name are the forms on record and can include a tag or linker. Residues count along the entry.
UniProt P36894: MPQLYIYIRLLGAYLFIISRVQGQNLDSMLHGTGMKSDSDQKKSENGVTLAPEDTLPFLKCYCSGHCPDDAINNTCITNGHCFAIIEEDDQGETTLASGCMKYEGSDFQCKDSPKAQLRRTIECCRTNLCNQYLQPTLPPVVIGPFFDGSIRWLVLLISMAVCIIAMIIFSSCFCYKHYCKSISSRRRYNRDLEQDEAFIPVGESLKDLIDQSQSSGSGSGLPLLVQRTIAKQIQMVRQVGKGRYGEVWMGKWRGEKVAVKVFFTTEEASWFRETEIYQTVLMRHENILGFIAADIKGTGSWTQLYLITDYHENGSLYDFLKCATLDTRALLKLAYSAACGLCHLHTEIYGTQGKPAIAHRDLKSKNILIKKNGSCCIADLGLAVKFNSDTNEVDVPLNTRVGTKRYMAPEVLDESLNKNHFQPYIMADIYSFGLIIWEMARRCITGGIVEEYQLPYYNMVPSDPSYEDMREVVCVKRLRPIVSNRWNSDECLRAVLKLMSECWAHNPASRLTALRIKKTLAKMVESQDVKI
human ALK3-HA expressed in HEK293T cells: residues 24-532 of P36894
ALK3^ECD-AP (extracellular domain of ALK3 fused to alkaline phosphatase, conditioned medium): residues 24-152 of P36894
UniProt Q6UXX9: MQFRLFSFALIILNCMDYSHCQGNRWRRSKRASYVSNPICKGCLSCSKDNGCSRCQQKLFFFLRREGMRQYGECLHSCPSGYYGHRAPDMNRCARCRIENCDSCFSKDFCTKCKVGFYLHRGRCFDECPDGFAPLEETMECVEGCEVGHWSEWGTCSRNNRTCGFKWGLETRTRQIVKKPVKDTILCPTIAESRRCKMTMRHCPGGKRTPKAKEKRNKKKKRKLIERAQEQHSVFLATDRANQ

These are yes or no findings as the source states them, for the method shown. Some binding calls cover weakened binding; strength is not graded here.

Assay [1] deals with ALK3^ECD-AP (extracellular domain of ALK3 fused to alkaline phosphatase, conditioned medium) (UniProt P36894). The assay can be described thus: in vitro binding assay: plate-coated recombinant RSPO2, ALK3^ECD-AP conditioned medium, bound AP chemiluminescence.
Assay [2] deals with human ALK3-HA expressed in HEK293T cells (human) (UniProt P36894). The experiment in a line: cell surface binding assay on HEK293T cells transfected with human ALK3-HA, AP conditioned medium.
The target of assay [3] is ALK3^ECD-AP (extracellular domain of ALK3 fused to alkaline phosphatase, conditioned medium) (UniProt P36894). The assay can be described thus: in vitro binding assay: plate-coated ZNRF3 Fc, ALK3^ECD-AP preincubated with RSPO2; bound AP activity.

“recombinant human RSPO2 (Peprotech 120-43) (from UniProt Q6UXX9 22-243) (ligand)”: the binding result in assay [1] is “binds”.

For the substance “human RSPO2^ΔC-AP (RSPO2 with the C-terminal domain replaced by alkaline phosphatase, conditioned medium) (from UniProt Q6UXX9 22-204) (ligand)”, the binding entry in assay [2] is on record as “binds”.

Turning to “RSPO2-Flag (human RSPO2 wild-type lacking the C-terminal domain, C-terminal Flag-tag, conditioned medium) (from UniProt Q6UXX9 22-204) (ligand)”, the binding entry in assay [3] is given as “binds”.
